No constants are given. Whether binding was seen depends on the method and setting. Some entries that bind do so weakly or less than the wild type.
Target: lectin MAA from Maackia amurensis (Maackia amurensis) (UniProt P0DKL3)
Experiment: solid-phase assay

The chains behind the UniProt entries cited, without tags or fusion partners. Residues count along the entry.
UniProt P0DKL3, residues 30-278: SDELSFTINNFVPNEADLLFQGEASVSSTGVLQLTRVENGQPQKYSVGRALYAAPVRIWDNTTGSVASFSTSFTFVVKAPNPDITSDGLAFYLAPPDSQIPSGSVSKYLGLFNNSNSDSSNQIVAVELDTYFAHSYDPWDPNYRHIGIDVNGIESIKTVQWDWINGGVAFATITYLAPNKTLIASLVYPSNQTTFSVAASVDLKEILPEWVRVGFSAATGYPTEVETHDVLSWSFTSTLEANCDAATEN

binding: binds
Binder: VGGGS [SVC2 (VGGGS)]

From patent US20150299252A1
